{
  "sequences": {"note": "Amino acid sequences for entries named in this document (tags omitted).", "UniProt P21728": "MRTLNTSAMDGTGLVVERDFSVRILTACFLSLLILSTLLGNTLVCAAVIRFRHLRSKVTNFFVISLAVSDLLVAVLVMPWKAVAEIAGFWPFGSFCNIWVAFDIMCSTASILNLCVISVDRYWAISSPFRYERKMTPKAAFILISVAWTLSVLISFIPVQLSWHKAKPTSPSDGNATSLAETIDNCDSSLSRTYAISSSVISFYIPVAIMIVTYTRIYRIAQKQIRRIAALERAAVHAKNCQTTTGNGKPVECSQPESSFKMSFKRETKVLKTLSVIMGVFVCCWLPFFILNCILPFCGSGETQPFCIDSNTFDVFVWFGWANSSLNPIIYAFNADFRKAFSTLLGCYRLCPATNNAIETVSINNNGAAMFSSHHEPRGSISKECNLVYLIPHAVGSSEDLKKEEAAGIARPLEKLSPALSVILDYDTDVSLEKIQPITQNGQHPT"},
  "source": "paper PMC7356291",
  "molecules": {"B1": {"name": "YWHAE-YFP (14-3-3ε fused with EYFP), P62258 1-255 (protein)", "chain": "MDDREDLVYQAKLAEQAERYDEMVESMKKVAGMDVELTVEERNLLSVAYKNVIGARRASWRIISSIEQKEENKGGEDKLKMIREYRQMVETELKLICCDILDVLDKHLIPAANTGESKVFYYKMKGDYHRYLAEFATGNDRKEAAENSLVAYKAASDIAMTELPPTHPIRLGLALNFSVFYYEILNSPDRACRLAKAAFDDAIAELDTLSEESYKDSTLIMQLLRDNLTLWTSDMQGDGEEQNKEALQDVEDENQ"}, "B2": {"name": "mutant 14-3-3σ carrying p.E75del, p.S149L and p.T165S (SFN), fused with Rluc or EYFP (protein, UniProt P31947 1-248)", "chain": "MERASLIQKAKLAEQAERYEDMAAFMKGAVEKGEELSCEERNLLSVAYKNVVGGQRAAWRVLSSIEQKSNEEGSEKGPEVREYREKVETELQGVCDTVLGLLDSHLIKEAGDAESRVFYLKMKGDYYRYLAEVATGDDKKRIIDSARLAYQEAMDISKKEMPPSNPIRLGLALNFSVFHYEIANSPEEAISLAKTTFDEAMADLHTLSEDSYKDSTLIMQLLRDNLTLWTADNAGEEGGEAPQEPQS"}},
  "assay_in_all_cases": "FRET or BRET; BRET saturation in HEK-293T cells co-transfected with a constant Rluc donor construct and increasing amounts of the YFP acceptor construct; 48 h after transfection; coelenterazine H; cells in HBSS pH 7.4",
  "key": {"[1]": {"target": "Rluc-YWHAZ WT (14-3-3ζ wild type fused with Renilla luciferase) (human) (UniProt P63104)"}, "[2]": {"target": "DRD1-Rluc (D(1A) dopamine receptor fusion protein with Rluc) (UniProt P21728)"}, "[3]": {"target": "T1, Rluc-YWHAZ WT (14-3-3ζ wild type fused with Renilla luciferase) (human), P63104", "T1 chain": "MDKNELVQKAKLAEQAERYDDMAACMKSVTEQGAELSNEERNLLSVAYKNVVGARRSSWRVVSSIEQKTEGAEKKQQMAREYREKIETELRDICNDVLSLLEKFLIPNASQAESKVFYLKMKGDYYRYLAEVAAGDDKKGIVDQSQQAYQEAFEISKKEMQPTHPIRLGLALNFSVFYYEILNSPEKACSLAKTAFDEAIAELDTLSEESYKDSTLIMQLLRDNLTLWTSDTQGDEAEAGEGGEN", "conditions": "remark: other sources report otherwise"}, "[4]": {"target": "mutant 14-3-3σ carrying p.E75del, p.S149L and p.T165S (SFN), fused with Rluc or EYFP (human) (UniProt P31947)"}},
  "note": "Results are given in words; binding and its absence hold for the method and conditions named. In cells and extracts the contact can be indirect. Some entries that bind do so weakly or less than the wild type. For some of these results: Sequences can lack the tags named with a protein.",
  "data": [
    {"molecule": "DRD1-YFP (D(1A) dopamine receptor fusion protein with YFP) (from UniProt P21728 1-446)", "values": [
      {"measurement": "binding", "setting": "[1]", "result": "no binding"}
    ]},
    {"molecule": "YWHAE-YFP (14-3-3ε fused with EYFP) (from UniProt P62258 1-255)", "values": [
      {"measurement": "binding", "setting": "[2]", "result": "no binding"}
    ]},
    {"molecule": "B1", "values": [
      {"measurement": "binding", "setting": "[3]", "result": "binds"}
    ]},
    {"molecule": "B2", "values": [
      {"measurement": "binding", "setting": "[4]", "result": "binds"}
    ]}
  ]
}
